This is an account of results in the supplement of paper PMC11732987, “Enantioselective OTUD7B fragment discovery through chemoproteomics screening and high-throughput optimisation” (Communications Chemistry, 2025).

The chains behind the UniProt entries cited, without tags or fusion partners. Where a name states a change or a piece, a line headed by the entry shows the natural chain unless it says otherwise.
UniProt Q02952: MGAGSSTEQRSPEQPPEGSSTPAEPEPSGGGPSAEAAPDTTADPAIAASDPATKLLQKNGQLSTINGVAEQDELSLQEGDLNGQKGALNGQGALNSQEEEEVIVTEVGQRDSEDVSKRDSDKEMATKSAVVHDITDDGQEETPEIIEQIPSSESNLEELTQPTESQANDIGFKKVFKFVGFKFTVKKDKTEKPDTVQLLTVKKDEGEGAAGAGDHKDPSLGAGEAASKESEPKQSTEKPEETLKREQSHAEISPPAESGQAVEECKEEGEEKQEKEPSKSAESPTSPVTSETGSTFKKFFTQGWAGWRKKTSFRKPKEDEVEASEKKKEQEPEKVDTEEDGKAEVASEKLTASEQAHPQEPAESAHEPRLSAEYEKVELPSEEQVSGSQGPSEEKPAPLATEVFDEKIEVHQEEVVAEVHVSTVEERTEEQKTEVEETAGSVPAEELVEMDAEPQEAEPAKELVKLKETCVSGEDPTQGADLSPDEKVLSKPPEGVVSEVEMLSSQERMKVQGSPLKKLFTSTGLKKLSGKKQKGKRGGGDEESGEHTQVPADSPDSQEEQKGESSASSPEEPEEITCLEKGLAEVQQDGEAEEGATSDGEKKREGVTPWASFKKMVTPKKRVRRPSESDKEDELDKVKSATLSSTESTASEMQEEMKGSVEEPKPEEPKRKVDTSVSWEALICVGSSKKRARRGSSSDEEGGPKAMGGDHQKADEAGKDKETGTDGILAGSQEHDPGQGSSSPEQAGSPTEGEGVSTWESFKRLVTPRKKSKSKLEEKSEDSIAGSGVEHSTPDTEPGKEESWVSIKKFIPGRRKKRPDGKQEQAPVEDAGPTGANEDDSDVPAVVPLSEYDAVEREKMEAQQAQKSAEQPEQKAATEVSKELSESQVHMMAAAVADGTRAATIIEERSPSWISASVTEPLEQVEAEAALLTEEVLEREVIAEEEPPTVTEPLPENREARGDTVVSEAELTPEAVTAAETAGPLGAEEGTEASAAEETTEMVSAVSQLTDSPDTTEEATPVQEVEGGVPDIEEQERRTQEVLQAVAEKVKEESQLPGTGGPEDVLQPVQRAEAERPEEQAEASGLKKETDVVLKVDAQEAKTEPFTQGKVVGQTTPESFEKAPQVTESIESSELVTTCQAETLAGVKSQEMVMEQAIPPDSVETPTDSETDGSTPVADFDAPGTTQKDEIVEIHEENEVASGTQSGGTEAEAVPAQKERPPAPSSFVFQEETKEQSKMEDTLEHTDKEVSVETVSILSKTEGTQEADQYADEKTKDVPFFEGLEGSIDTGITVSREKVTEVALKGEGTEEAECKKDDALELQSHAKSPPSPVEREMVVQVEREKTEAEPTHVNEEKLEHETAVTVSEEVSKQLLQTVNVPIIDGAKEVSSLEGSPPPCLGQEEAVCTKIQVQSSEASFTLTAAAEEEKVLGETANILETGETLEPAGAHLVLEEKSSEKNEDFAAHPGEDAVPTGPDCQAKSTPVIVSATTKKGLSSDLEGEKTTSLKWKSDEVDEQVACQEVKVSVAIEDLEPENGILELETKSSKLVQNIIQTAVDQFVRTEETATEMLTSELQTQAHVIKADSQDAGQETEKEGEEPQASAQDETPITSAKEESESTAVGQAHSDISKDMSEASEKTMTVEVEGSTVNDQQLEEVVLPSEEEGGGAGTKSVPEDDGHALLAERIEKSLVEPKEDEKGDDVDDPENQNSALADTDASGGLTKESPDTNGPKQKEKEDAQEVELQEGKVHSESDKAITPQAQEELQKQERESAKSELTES

The list shows a part of the results. The data scatter; read single values as rough.

For one test, the target named is T1, AKAP12 C265 (UniProt Q02952).
T1 sequence (whole entry): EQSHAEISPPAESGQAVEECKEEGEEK
Put plainly: log2 mean competition ratio of IA-DTB cysteine labelling (DMSO/compound) (log2 ratio); higher = stronger cysteine engagement by compound. The conditions noted are these: 50 µM; treatment time: 4 h; cell line lysate: HEK293T. On the procedure: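 IA-DTB competitive cysteine chemoproteomics in HEK293T RIPA lysate. Lysates were treated with compound 29 or 30 at 50 or 200 µM for 4 h, then IA-DTB (500 µM, 1 h), trypsin-digested, NeutrAvidin-enriched and analysed by diaPASEF. Competition ratio = intensity DMSO / intensity compound (n=4 treated, n=64 DMSO); binding: mean log2 CR ≥ 1 and p ≤ 0.05 plus QC filters. Target is the cysteine site.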
`O=C(CCl)N[C@@H]1CCCc2ccccc21`: the “log2 mean competition ratio” value was -0.342.
Same read-out and setting: for `O=C(CCl)N[C@H]1CCCc2ccccc21` the value was -0.214.

Staying with this test, now noted: 200 µM; treatment time: 4 h; cell line lysate: HEK293T.
As to `O=C(CCl)N[C@@H]1CCCc2ccccc21`, the “log2 mean competition ratio” value was -0.156.
As for `O=C(CCl)N[C@H]1CCCc2ccccc21`, the “log2 mean competition ratio” value was -0.299.
